# PubChem BioAssay AID588590 (National Center for Advancing Translational Sciences (NCATS), 2011)
# The chains behind the UniProt entries cited, without tags or fusion partners. Where a name states a change or a piece, a line headed by the entry shows the natural chain unless it says otherwise.
# UniProt Q9UNA4: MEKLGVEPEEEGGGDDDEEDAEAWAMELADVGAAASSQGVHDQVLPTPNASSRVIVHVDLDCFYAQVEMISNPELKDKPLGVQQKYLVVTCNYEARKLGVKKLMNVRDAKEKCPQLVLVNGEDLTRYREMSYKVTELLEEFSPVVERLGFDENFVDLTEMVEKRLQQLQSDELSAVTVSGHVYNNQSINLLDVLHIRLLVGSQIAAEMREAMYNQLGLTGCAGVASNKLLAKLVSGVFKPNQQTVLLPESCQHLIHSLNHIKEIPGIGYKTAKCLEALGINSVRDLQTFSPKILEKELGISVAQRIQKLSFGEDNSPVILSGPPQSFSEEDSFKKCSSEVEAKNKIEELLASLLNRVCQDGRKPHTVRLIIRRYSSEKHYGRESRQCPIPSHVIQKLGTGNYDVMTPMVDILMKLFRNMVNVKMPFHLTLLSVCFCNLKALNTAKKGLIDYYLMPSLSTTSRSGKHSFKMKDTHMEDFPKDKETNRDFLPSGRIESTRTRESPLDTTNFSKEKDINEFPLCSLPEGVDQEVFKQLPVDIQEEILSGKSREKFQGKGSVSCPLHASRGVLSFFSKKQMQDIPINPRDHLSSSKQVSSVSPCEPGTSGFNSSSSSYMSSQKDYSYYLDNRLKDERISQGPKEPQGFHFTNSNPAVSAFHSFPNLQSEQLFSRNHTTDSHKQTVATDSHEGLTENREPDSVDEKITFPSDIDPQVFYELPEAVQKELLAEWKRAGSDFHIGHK
# Hit rate of the full screen: of about 390,000 compounds, about 4,000 (1%) were called active. Inconclusive results, whose numbers are uncertain, are shown with a selection of clear calls. Calls follow the shape of the dose curve; as a rule, active = well fitted inhibition curve with a large enough effect; inconclusive = small, poorly fitted or top-dose-only effect, or another doubt; inactive = no such curve, though single readings can be large or run the other way. A potency beside an inconclusive call is a rough fit, not a confirmed value.
# Target: DNA polymerase iota (Homo sapiens) (UniProt Q9UNA4)
# Assay: qHTS for Inhibitors of Polymerase Iota
# Settings: Pol iota fluorescent replication assay, 10 min; series mostly up to 115 µM; activity, negative = inhibition: at the top concentration
# Summary of the method: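 Fluorescent replication assay read twice, at 0 min and 10 min after adding 50 nM (final) substrate. Enzyme (10 nM) and compounds were first incubated 15 min at room temperature; enzyme-free buffer wells were negative controls.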
# Potency is read from the fitted curve at half-maximal effect.
Compound,Potency,"activity, negative = inhibition"
CCNC(=S)N(CCc1c(C)[nH]c2ccc(Cl)cc12)Cc1ccco1,"inconclusive: 89.1 µM [inhibitor, partial curve, poor fit]",–
CCc1ccc2nc(NC(=O)c3ccc4c(=O)[nH]c(CN5CCOCC5)nc4c3)sc2c1,"inconclusive: 3.98 µM [inhibitor, full curve, poor fit]",–
CCC(C)N1CC(C(=O)O)CC1=O (stereo not drawn),"inconclusive: 79.4 µM [inhibitor, partial curve]",–
C=CCOc1nc(N(C)C)nc(N(C)C)n1,–,inactive: 2.06%
Cc1ccc2nc(NC(=S)NC(=O)c3cccs3)sc2c1,"inconclusive: 7.94 µM [inhibitor, partial curve]",–
COC(=O)c1ccc(NC(=O)CCCN2C(=O)NC(C)(C)C2=O)cc1,"inconclusive: 89.1 µM [inhibitor, single point]",–
O=C(Nc1ccc(NC(=O)c2cccs2)cc1)c1ccc(Br)o1,"inconclusive: 15.8 µM [inhibitor, partial curve, poor fit]",–
COc1ccc(-c2cc(OC(=O)c3cccc(Cl)c3)c3c(C)oc(C)c3c(=O)c2)cc1OC,"inconclusive: 79.4 µM [inhibitor, single point]",–
O=c1[nH][nH]c2c(N=Cc3ccccc3O)ccc(F)c12,active: 0.891 µM,–
COc1oc(-c2ccccc2)nc1C(F)(F)F,–,inactive: 12.9%
O=S(=O)(c1cccc(Cl)c1)n1c(/C=C/c2ccccc2Cl)nc2ccccc21,"inconclusive: 11.2 µM [inhibitor, partial curve, poor fit]",–
Cc1ccccc1NC(=O)CSc1nc(-c2cccs2)nc2cc(=O)[nH]n12,active: 89.1 µM,–
CCc1c(C)sc(NC(=O)c2cc3nc(-c4ccc(OC)cc4)cc(C(F)(F)F)n3n2)c1C(=O)OC,–,inactive: 47.1%
O=C(CCCOc1ccccc1)NNC(=O)c1ccncc1,"inconclusive: 89.1 µM [inhibitor, single point]",–
O=C(/C=C/c1cccc([N+](=O)[O-])c1)c1ccc([N+](=O)[O-])o1,"inconclusive: 2.51 µM [inhibitor, full curve, poor fit]",–
CCCc1nn2c(=O)cc(COC(=O)c3cccc(NC(=O)c4ccc(OCC)cc4)c3)nc2s1,–,inactive: 15%
CC(CCc1ccccc1)NCc1ccncc1 (stereo not drawn),"inconclusive: 17.8 µM [inhibitor, partial curve]",–
COC(=O)CSc1nc2sc3c(c2c(=O)n1-c1ccccc1)C(C)CCC3 (stereo not drawn),"inconclusive: 89.1 µM [inhibitor, single point]",–
CN(C)c1ccc(Nc2ccc([N+](=O)[O-])cn2)cc1,"inconclusive: 31.6 µM [inhibitor, partial curve, poor fit]",–
N#Cc1cc2c(nc1SCc1ccc(Cl)cc1)CCCC2,"inconclusive: 70.8 µM [inhibitor, full curve]",–
CC1CCCCN1CCNC(=O)C1CCN(S(=O)(=O)N2CCCCC2)CC1 (stereo not drawn),"inconclusive: 79.4 µM [inhibitor, partial curve, poor fit]",–

Compound,Potency,"activity, negative = inhibition"
S=C(Nc1ccc(Oc2ccccc2)cc1)NC1CCCCCC1,"inconclusive: 89.1 µM [inhibitor, partial curve, poor fit]",–
CC(C)c1ccccc1NC(=O)CCc1nc2ccccc2s1,"inconclusive: 15.8 µM [inhibitor, full curve, poor fit]",–
COc1ccccc1-c1cc(C(F)(F)F)nc(S(=O)(=O)CCCC(=O)NCc2ccc(F)cc2)n1,–,inactive: 130%
CN(C)C1=NCCN1CC1CCCC1,"inconclusive: 20 µM [inhibitor, partial curve, poor fit]",–
COc1ccc(S(=O)(=O)N2CCc3ccccc32)cc1C(=O)Nc1ccc(C(N)=O)cc1,active: 89.1 µM,–
COc1ccc(OCC(=O)Nc2cc(NC(=O)c3ccco3)ccc2OC)cc1,–,inactive: -8.46%
CC(=O)N1C(=O)/C(=C2\SC(=S)N(NS(=O)(=O)c3ccc(C)cc3)C2=O)c2ccccc21,"inconclusive: 50.1 µM [inhibitor, partial curve, poor fit]",–
Cn1c(=O)c2c(nc(N3CCOCC3)n2Cc2ccccc2F)n(C)c1=O,–,inactive: 21.2%
COc1ccc(/C=N/NC(=O)c2nn(-c3ccc(Cl)cc3)c(=O)c3c(N)scc23)cc1,"inconclusive: 15.8 µM [inhibitor, partial curve, poor fit]",–
O=C(Cn1cnc2c(nnn2Cc2ccc(Cl)cc2)c1=O)NCc1ccco1,"inconclusive: 112 µM [inhibitor, single point]",–
Cc1ccc2nc(-c3ccc(SCC(=O)Nc4cc(C)on4)nc3)[nH]c2c1,"inconclusive: 14.1 µM [inhibitor, partial curve]",–
NC(=O)NC(CC(=O)OCC(=O)NC(=O)NCc1ccco1)c1ccc(Cl)cc1 (stereo not drawn),"inconclusive: 44.7 µM [inhibitor, partial curve]",–
CCN1CCN(Cc2c(OC)ccc3ccccc23)CC1,"inconclusive: 22.4 µM [inhibitor, partial curve]",–
CN1C(=O)/C(=C/c2ccccc2OCc2ccc(C(=O)O)cc2)NC1=S,"inconclusive: 89.1 µM [inhibitor, partial curve, poor fit]",–
N#Cc1ccc(NC(=O)CCc2ccc(S(=O)(=O)N3CCOCC3)cc2)cc1,"inconclusive: 100 µM [inhibitor, partial curve, poor fit]",–
COc1ccc(Nc2ncccc2C(=O)O)cc1,"inconclusive: 89.1 µM [inhibitor, partial curve, poor fit]",–
N#C/C(=C\c1ccc(-c2ccc(C(=O)O)cc2)o1)C(=O)Nc1ccc(F)cc1,active: 10 µM,–
Cc1ccn2c(=O)nc(SCC(=O)Nc3cccc4ccccc34)nc2c1,"inconclusive: 35.5 µM [inhibitor, partial curve, poor fit]",–
CC(C)(C)c1cc(/C=C(\C#N)C(N)=S)cc(C(C)(C)C)c1O,"inconclusive: 20 µM [inhibitor, partial curve, poor fit]",–
COc1cc(/C=C2\CCCc3c2nc2ccccc2c3C(=O)O)cc([N+](=O)[O-])c1O,active: 12.6 µM,–
CCC(=O)Oc1c(Sc2ccc(C)cc2)c(C)nn1-c1ccccc1,"inconclusive: 31.6 µM [inhibitor, single point]",–

# Entries shown so far that contain a nitro group on carbon, in the order listed:
Compound,Potency,"activity, negative = inhibition"
O=C(/C=C/c1cccc([N+](=O)[O-])c1)c1ccc([N+](=O)[O-])o1,"inconclusive: 2.51 µM [inhibitor, full curve, poor fit]",–
CN(C)c1ccc(Nc2ccc([N+](=O)[O-])cn2)cc1,"inconclusive: 31.6 µM [inhibitor, partial curve, poor fit]",–
COc1cc(/C=C2\CCCc3c2nc2ccccc2c3C(=O)O)cc([N+](=O)[O-])c1O,active: 12.6 µM,–

# Carrying on.

Compound,Potency,"activity, negative = inhibition"
CC(C)CCOc1ccc(C(CC(N)=O)C(=O)O)cc1 (stereo not drawn),–,inactive: 6.38%
O=C(/C=C/c1cccc([N+](=O)[O-])c1)c1ccco1,"inconclusive: 7.94 µM [inhibitor, full curve, poor fit]",–
Oc1ccc(Br)cc1/C=N/N1CCN(Cc2cccc3ccccc23)CC1,"inconclusive: 100 µM [inhibitor, partial curve, poor fit]",–
CCCn1c2ccccc2c2cnn(CC(=O)N3CCOCC3)c(=O)c21,"inconclusive: 44.7 µM [inhibitor, full curve, poor fit]",–
COc1cc(OC)c2ccc(=O)oc2c1C(CC(=O)N1CCCC(C)C1)c1ccc2c(c1)OCO2 (stereo not drawn),"inconclusive: 35.5 µM [inhibitor, full curve]",–
O=C(N/C(=C/c1ccco1)C(=O)N1CCc2ccccc21)c1ccco1,"inconclusive: 35.5 µM [inhibitor, single point]",–
CCOc1cc(N2CCOCC2)c(OCC)cc1NC(=O)COc1ncnc2ccccc12,–,inactive: 16.7%
Cc1cc(C)cc(NC(=O)CSc2nnc(-c3cc(C)[nH]n3)n2N)c1,–,inactive: 1.34%
Cn1c(CN2CCOCC2)nc2cc(NC(=O)c3ccccc3[N+](=O)[O-])ccc21,"inconclusive: 100 µM [inhibitor, partial curve, poor fit]",–
CC(C)n1c(CNC(=O)c2ccccc2F)nnc1SCC(=O)c1ccc(F)cc1,"inconclusive: 44.7 µM [inhibitor, partial curve]",–
Cc1oc(C(C)(C)C)cc1C(=O)Nc1cccc(/C=C/C(=O)O)c1,"inconclusive: 39.8 µM [inhibitor, single point]",–
COc1cc(C2Nc3cc(Cl)c(S(N)(=O)=O)cc3S(=O)(=O)N2)ccc1OCc1ccccc1 (stereo not drawn),"inconclusive: 35.5 µM [inhibitor, single point]",–
Cc1cccc2nc(CSc3nc4ccc([N+](=O)[O-])cc4[nH]3)c(Br)n12,"inconclusive: 22.4 µM [inhibitor, partial curve, poor fit]",–
COC(=O)c1ccccc1NC(=O)Cn1cnc2cc(C)c(C)cc21,"inconclusive: 70.8 µM [inhibitor, partial curve, poor fit]",–
O=C(Cn1ncc2ccccc21)N1CCc2ccccc21,"inconclusive: 25.1 µM [inhibitor, partial curve, poor fit]",–
Cc1ccc(NC(=O)CN(C)C(=O)CCC(=O)c2cccs2)cc1,"inconclusive: 44.7 µM [inhibitor, partial curve]",–
O=C(Nc1ccc(S(=O)(=O)NC2=NCCCCC2)cc1)c1ccc(Cl)c([N+](=O)[O-])c1,"inconclusive: 89.1 µM [inhibitor, single point]",–
O=c1[nH]cnc2c1N=C(c1cccc([N+](=O)[O-])c1)CC(c1ccccc1)N2 (stereo not drawn),"inconclusive: 22.4 µM [inhibitor, partial curve, poor fit]",–
Cc1c(CC(=O)NCCc2ccccc2)c(=O)oc2c(C)c3occ(C(C)(C)C)c3cc12,–,inactive: -6.84%
CSCC[C@H](NC(=O)N1CCn2c1nc1ccccc12)C(=O)N[C@H](Cc1ccccc1)C(=O)O,"inconclusive: 89.1 µM [inhibitor, single point]",–
